Strings that start with PEPTIDE1 are HELM notation: dots part the residues, brackets hold end groups and non-standard residues.
Assay: general procedure: solution-phase peptide synthesis; 1-cyclohexyl-3-(2-morpholinoethyl)carbodiimide metho-p-toluene sulfonate / N-hyd

## Histidine-Benzyloxycarbonylaminostatine-Isoleucine -Phenylalanine Benzyl Ester Hydrochloride
Late stage modification step
  step yield: 86%

## PEPTIDE1{[Boc].F.H.[Sta].A.[Sta].E}$$$$V2.0
Late stage modification step
  step yield: 72%

## PEPTIDE1{[Boc].F.H.[Sta].[IleCH2NHPhe]}$$$$V2.0
Late stage modification step
  step yield: 84%

## [N-(t-butyloxycarbonyl)-Phe]-N-methyl-His-Sta-Ile-Phe-benzyl ester
Coupling step
  step yield: 57%

## [N-im-(t-butyloxycarbonyl)-N-methyl Histidine]-Sta Ile-Phe-benzyl ester
Coupling step
  step yield: 62%

From patent US4749687A (Pfizer Inc., priority 1985, dated 1988)
